According to publication PMC4242682:
Results are given in words; binding and its absence hold for the method and conditions named. Some binding calls cover weakened binding; strength is not graded here.

Key:
Cpn60β1 [1] = target: Cpn60β1 (UniProt C0Z361); assay: condition: only with Cpn10(1) alone or G32A alone as the co-chaperonin (25 µM); 50 µM Cpn60β1 monomer; native gel or EMSA; as a5, but with 25 µM Cpn10(1) alone or G32A alone as the co-chaperonin; both purified
Cpn60β1 [2] = target: Cpn60β1 (UniProt C0Z361); assay: native gel or EMSA; 50 µM Cpn60β1 monomer with 25 µM wild type Cpn20 (or the mixture of G32A and Cpn10(1)), 5 mM ATP, 10 mM MgCl2, 50 mM Tris-HCl pH 8, 0.3 M NaCl, 16 mM KCl, 2 mM DTT; 5 min room temperature, 1 h 30°C; 6% native gel; monomer to oligomer; both purified

B1: Cpn60β1 (protein, UniProt C0Z361 30-597)
chain: SSSFGRTQSIAQRKARFPKIYAAKQLHFNKDGTAIKKLQAGVNKLADLVGVTLGPKGRNVVLESKYGSPRIVNDGVTVAREVELEDPVENIGAKLVRQAASKTNDLAGDGTTTSVVLAQGLIAEGVKVVAAGANPVLITRGIEKTTKALVAELKKMSKEVEDSELADVAAVSAGNNYEVGNMIAEAMAKVGRKGVVTLEEGKSAENSLYVVEGMQFDRGYISPYFVTDSEKMCAEYENCKLFLVDKKITNARDIISILEDAIKGGYPLLIIAEDIEQEPLATLVVNKLRGTIKVAALKAPGFGERKSQYLDDIAALTGATVIREEVGLQLEKVGPEVLGNAGKVVLTKDTTTIVGDGSTEEVVKKRVEQIKNLIEAAEQDYEKEKLNERIAKLSGGVAVIQVGAQTETELKEKKLRVEDALNATKAAVEEGIVVGGGCTLLRLASKVDAIKETLANDEEKVGADIVKKALSYPLKLIAKNAGVNGSVVSEKVLSSDNPKHGYNAATGKYEDLMAAGIIDPTKVVRCCLEHASSVAKTFLMSDCVVVEIKEPESAAPAGNPMDNSGYGF
- binding (Cpn60β1 [1]): no binding
- binding (Cpn60β1 [2]): binds
